Where a name gives a salt, the structure may show the parent alone. This is one part of the list. Many values rest on one well or one pass, so single values are uncertain.
Columns and labels:
[1] = tested on: Saos-2; assay: cell viability (CCK-8) relative to DMSO control (% of control); higher = less cytotoxic; conditions: 10 µM; 48 h
[2] = tested on: U2OS; assay: as above; conditions: 10 µM; 48 h

| Structure (SMILES) | cell viability [1] | cell viability [2] |
| --- | --- | --- |
| CC(=O)OC[C@H]1O[C@@H]([S-])[C@H](OC(C)=O)[C@@H](OC(C)=O)[C@@H]1OC(C)=O.CCP(CC)CC.[Au+] [Auranofin] | 14.9 | 12.9 |
| COCCCOc1ccnc(C[S+]([O-])c2nc3ccccc3[nH]2)c1C (centres undefined) [Rabeprazole . Sodium] | 109 | 102 |
| COc1ccc(CC2c3cc(OC)c(OC)cc3CC[N+]2(C)CCC(=O)OCCCCCOC(=O)CC[N+]2(C)CCc3cc(OC)c(OC)cc3C2Cc2ccc(OC)c(OC)c2)cc1OC (centres undefined) [Atracurium Besylate] | 62.8 | 104 |
| N=C(N)NC(=O)Cc1c(Cl)cccc1Cl [Guanfacine·HCl] | 57.1 | 130 |
| Nc1nc2ccc(OC(F)(F)F)cc2s1 [Riluzole·HCl] | 60.3 | 107 |
| CC(C)c1nc(CN(C)C(=O)N[C@H](C(=O)N[C@@H](Cc2ccccc2)C[C@H](O)[C@H](Cc2ccccc2)NC(=O)OCc2cncs2)C(C)C)cs1 [Ritonavir] | 107 | 103 |
| CC(C)(C)NC[C@H](O)COc1nsnc1N1CCOCC1 [Timolol maleate salt] | 64.5 | 105 |
| S=P(N1CC1)(N1CC1)N1CC1 | 106 | 101 |
| Nc1ccc(S(N)(=O)=O)cc1 [Sulfanilamide] | 112 | 86.1 |
| CCOC(=O)[C@H](CCc1ccccc1)N[C@@H](C)C(=O)N1[C@H](C(=O)O)C[C@@H]2CCC[C@@H]21 [Ramipril] | 70 | 117 |
| NNC(=O)c1ccncc1 [Isoniazid] | 65.5 | 99.5 |
| CCOC(=O)[C@H](CCc1ccccc1)N[C@@H](C)C(=O)N1Cc2ccccc2C[C@H]1C(=O)O [Quinapril·HCl] | 66.3 | 96.8 |
| Nc1ncnc2c1ncn2[C@@H]1O[C@H](CO)[C@@H](O)[C@H]1O [Adenosine] | 119 | 92.8 |
| CNCCCC12CCC(c3ccccc31)c1ccccc12 [Maprotiline·HCl] | 52.1 | 110 |
| O=C(O)C1(C(=O)O)CCC1.[NH2-].[NH2-].[Pt+2] [Carboplatin] | 65.5 | 118 |
| COc1cc2ncnc(Nc3ccc(F)c(Cl)c3)c2cc1OCCCN1CCOCC1 [Gefitinib] | 49.1 | 90.5 |

| Structure (SMILES) | cell viability [1] | cell viability [2] |
| --- | --- | --- |
| NS(=O)(=O)Cc1noc2ccccc12 [Zonisamide] | 62 | 120 |
| Nc1nc2c(ncn2COCCO)c(=O)[nH]1 [Acyclovir] | 67.5 | 96.5 |
| CC(C)C[C@H](NC(=O)[C@H](Cc1ccccc1)NC(=O)c1cnccn1)B(O)O [Bortezomib] | 19 | 12.7 |
| Cc1cc2c(s1)Nc1ccccc1N=C2N1CCN(C)CC1 [Olanzapine] | 54.4 | 98.7 |
| CCOC(=O)[C@H](CCc1ccccc1)N[C@@H](C)C(=O)N1CCC[C@H]1C(=O)O [Enalapril] | 71.5 | 106 |
| COc1ccccc1OCCNCC(O)COc1cccc2[nH]c3ccccc3c12 (centres undefined) [Carvedilol] | 55.3 | 114 |
| OC(CCN1CCCCC1)(c1ccccc1)C1CCCCC1 (centres undefined) [Trihexyphenidyl·HCl] | 80.1 | 86 |
| CCCNC(C)C(=O)Nc1ccccc1C (centres undefined) [Prilocaine·HCl] | 102 | 79.6 |
| CCc1cccc2c3c([nH]c12)C(CC)(CC(=O)O)OCC3 (centres undefined) [Etodolac] | 100 | 92.6 |
| OCCN1C[C@H](O)[C@@H](O)[C@H](O)[C@H]1CO [Miglitol] | 107 | 122 |
| CC(C)NCC(O)COc1cccc2ccccc12 (centres undefined) [Propranolol·HCl] | 67.2 | 116 |
| CSc1ccc2c(c1)N(CCC1CCCCN1C)c1ccccc1S2 (centres undefined) [Thioridazine·HCl] | 44.6 | 55 |
| CC[C@@H]([C@H](C)O)n1ncn(-c2ccc(N3CCN(c4ccc(OC[C@@H]5CO[C@@](Cn6cncn6)(c6ccc(F)cc6F)C5)cc4)CC3)cc2)c1=O [Posaconazole] | 106 | 88.3 |
| NC[C@H]1O[C@H](O[C@H]2[C@H](O)[C@@H](O[C@H]3O[C@H](CO)[C@@H](O)[C@H](N)[C@H]3O)[C@H](N)C[C@@H]2N)[C@H](O)[C@@H](O)[C@@H]1O [Kanamycin . sulfate] | 115 | 103 |
| CC(C)(C#N)c1cc(Cn2cncn2)cc(C(C)(C)C#N)c1 [Anastrozole] | 71.5 | 95.2 |
| CN1C(C(=O)Nc2ccccn2)=C(O)c2ccccc2S1(=O)=O [Piroxicam] | 59.2 | 108 |

Two records picked at random from the list so far, as already listed:

| Structure (SMILES) | cell viability [1] | cell viability [2] |
| --- | --- | --- |
| Cc1cc2c(s1)Nc1ccccc1N=C2N1CCN(C)CC1 [Olanzapine] | 54.4 | 98.7 |
| CCc1cccc2c3c([nH]c12)C(CC)(CC(=O)O)OCC3 (centres undefined) [Etodolac] | 100 | 92.6 |

Reference: the supplement of paper PMC9433722
